{"source": "PubChem BioAssay AID445", "about": "(National Center for Advancing Translational Sciences (NCATS), 2006)", "experiment": "IkB Signaling", "conditions": "ABC-DLBCL IkBa-CBG/CBR dual luciferase ratio (green luciferase fused to IkBa over red control in OCI-Ly3 lymphoma cells), 4 h", "in_short": "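Luminescence ratio of IκBα-fused green versus native red beetle luciferase in OCI-Ly3 cells, 4 h post-doxycycline with compound; red signal alone, scaled from basal (0%) to zero light (-100%), flagged nonspecific or cytotoxic effects.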", "key": {"[1]": {"conditions": "measured here: control luc red channel unless noted"}}, "note": "The other results are listed elsewhere or left out. Shown are side measurements of this screen, not its main read-out; they come without a call. Compounds called inactive in the main read-out are mostly missing here. Words in brackets tell the shape of the fitted curve; partial curves, single points and poor fits give uncertain potencies."}
{"smiles": "COc1cc(C(=O)Nc2cc(-c3ccccc3)[nH]n2)cc(OC)c1OC", "values": [{"measurement": "AC50", "setting": "[1]", "result": "3.16 µM [falling, full curve]"}]}
{"smiles": "Cc1ccc2c(c1)N(C(=O)CCC(=O)NCc1cccs1)CC(C)O2", "note": "(stereo not given)", "values": [{"measurement": "AC50", "setting": "[1]", "result": "0.631 µM [rising, partial curve, poor fit]"}]}
{"smiles": "COC(=O)c1ccccc1NC(=O)Cn1c(CCC(=O)O)ccc1-c1ccc(C)cc1", "values": [{"measurement": "AC50", "setting": "[1]", "result": "2.51 µM [falling, partial curve]"}]}
{"smiles": "CCOC(=O)C1CCN(C(=O)Cn2ncc3c4ccccc4n(Cc4ccccc4)c3c2=O)CC1", "values": [{"measurement": "AC50", "setting": "[1]", "result": "20 µM [falling, single point]"}]}
{"smiles": "N#CCCS(=O)(=O)c1nnnn1-c1ccccc1", "values": [{"measurement": "AC50", "setting": "[1]", "result": "2 µM [falling, full curve]"}]}
{"smiles": "Cc1ccc(NC(=O)c2c(C)oc3ncn(CC(C)C)c(=O)c23)nc1", "values": [{"measurement": "AC50", "setting": "[1]", "result": "1.26 µM [rising, full curve]"}]}
{"smiles": "Cc1ccc(C(=O)CC2(O)C(=O)N(Cc3ccc4c(c3)OCO4)c3ccccc32)cc1", "note": "(stereo not given)", "values": [{"measurement": "AC50", "setting": "[1]", "result": "25.1 µM [falling, partial curve]"}]}
{"smiles": "CCc1ccc(OCC(=O)N(C)C2CCS(=O)(=O)C2)cc1", "note": "(stereo not given)", "values": [{"measurement": "AC50", "setting": "[1]", "result": "12.6 µM [falling, partial curve]"}]}
{"smiles": "Cc1cccc(CN2C(=O)c3ccccc3S(=O)(=O)c3ccc(C(=O)NC4CCCCC4)cc32)c1", "values": [{"measurement": "AC50", "setting": "[1]", "result": "10 µM [falling, partial curve]"}]}
{"smiles": "Cc1ccc(C)c(NS(=O)(=O)c2ccc3oc(=O)c4ncn(C)c4c3c2)c1", "values": [{"measurement": "AC50", "setting": "[1]", "result": "39.8 µM [falling, single point]"}]}
{"smiles": "CCn1c(=O)c2sccc2n2c(CCC(=O)Nc3ccc(C(C)C)cc3)nnc12", "values": [{"measurement": "AC50", "setting": "[1]", "result": "3.98 µM [falling, partial curve]"}]}
{"smiles": "COc1ccccc1-c1nnc(SCC(=O)Nc2nc(-c3ccccc3)cs2)n1C", "values": [{"measurement": "AC50", "setting": "measured here: IkB-luc green channel", "result": "39.8 µM [falling, single point]"}, {"measurement": "AC50", "setting": "measured here: control luc red channel", "result": "15.8 µM [falling, partial curve]"}]}
{"smiles": "Cc1ccc(CNC(=O)CCc2nc3cccnc3n2Cc2ccccc2)cc1", "values": [{"measurement": "AC50", "setting": "[1]", "result": "6.31 µM [falling, single point]"}]}
{"smiles": "CC(=O)Nc1ccc(NC(=O)C(NS(=O)(=O)c2ccc(Br)s2)c2ccccc2)cc1", "note": "(stereo not given)", "values": [{"measurement": "AC50", "setting": "[1]", "result": "0.0158 µM [falling, full curve]"}]}
{"smiles": "CCOc1ccc2nc(N(Cc3cccnc3)C(C)=O)sc2c1", "values": [{"measurement": "AC50", "setting": "[1]", "result": "39.8 µM [rising, single point]"}]}
{"smiles": "COc1cc(S(=O)(=O)NC2CCCCC2)ccc1Cl", "values": [{"measurement": "AC50", "setting": "[1]", "result": "20 µM [falling, partial curve]"}]}
{"smiles": "Cc1cc(Nc2ccc(O)cc2)ccc1N", "values": [{"measurement": "AC50", "setting": "[1]", "result": "6.31 µM [rising, full curve] [measured here: IkB-luc green channel]"}]}
{"smiles": "O=C(CCNS(=O)(=O)c1ccc2c(c1)CCN2C(=O)C1CC1)N1CCN(c2cccc(C(F)(F)F)c2)CC1", "values": [{"measurement": "AC50", "setting": "[1]", "result": "31.6 µM [falling, partial curve, poor fit]"}]}
{"smiles": "COCc1oc2ccc(NS(=O)(=O)c3ccc(C)cc3)cc2c1C(=O)OC", "values": [{"measurement": "AC50", "setting": "[1]", "result": "2 µM [falling, partial curve]"}]}
{"smiles": "CCCC(=O)Nc1ccccc1C(=O)OCc1cc(=O)n2nc(C(C)C)sc2n1", "values": [{"measurement": "AC50", "setting": "[1]", "result": "10 µM [falling, partial curve]"}]}
{"smiles": "CC(=O)c1cccc(NC(=O)Cn2cc(C(=O)c3cccc(Cl)c3)c(=O)c3ccc(C)nc32)c1", "values": [{"measurement": "AC50", "setting": "[1]", "result": "12.6 µM [falling, partial curve]"}]}
{"smiles": "CCCOC(=O)c1[nH]c2c(c1C)C(=O)CC(c1cc(OC)c(OC)c(OC)c1)C2", "note": "(stereo not given)", "values": [{"measurement": "AC50", "setting": "[1]", "result": "3.16 µM [falling, full curve]"}]}
{"smiles": "Cc1cc(C)cc(NC(=O)N2CCN(C(=O)c3nsc4ccccc34)CC2)c1", "values": [{"measurement": "AC50", "setting": "[1]", "result": "0.0501 µM [falling, full curve, poor fit]"}]}
{"smiles": "COC(=O)c1ccc(-n2c(/C=C/c3cc(OC)c(OC)c(OC)c3)nc3cc(Cl)ccc3c2=O)cc1", "values": [{"measurement": "AC50", "setting": "[1]", "result": "10 µM [falling, partial curve]"}]}
{"smiles": "COCCn1c(SCc2ccc(C(=O)OC)o2)nc2cc(Cl)ccc2c1=O", "values": [{"measurement": "AC50", "setting": "[1]", "result": "39.8 µM [falling, single point]"}]}
{"smiles": "CCOc1ccc2c(c1)c(=O)c(S(=O)(=O)c1ccc(CC)cc1)cn2Cc1cccc(Cl)c1", "values": [{"measurement": "AC50", "setting": "[1]", "result": "15.8 µM [falling, partial curve]"}]}
{"smiles": "CCCSc1ncnc2c1c(-c1ccccc1)cn2-c1ccccc1OC", "values": [{"measurement": "AC50", "setting": "[1]", "result": "5.01 µM [falling, single point]"}]}
{"smiles": "Cc1ccc(NC(=O)C2CCN(S(=O)(=O)c3cccc4cccnc34)CC2)nc1", "values": [{"measurement": "AC50", "setting": "[1]", "result": "12.6 µM [falling, partial curve]"}]}
{"smiles": "COc1ccc(OC)c(NC(=O)CS(=O)(=O)Cc2nc(-c3ccc(C)cc3)oc2C)c1", "values": [{"measurement": "AC50", "setting": "[1]", "result": "12.6 µM [falling, partial curve]"}]}
{"smiles": "COc1ccc(CNC(=O)c2ccc(CS(=O)(=O)c3ccc(Br)cc3)o2)cc1", "values": [{"measurement": "AC50", "setting": "[1]", "result": "31.6 µM [falling, single point]"}]}
{"smiles": "CCCCOC(=O)c1ccc(Nc2nc3ccc(C(=O)c4ccccc4)cc3n3cnnc23)cc1", "values": [{"measurement": "AC50", "setting": "[1]", "result": "0.794 µM [rising, full curve, poor fit]"}]}
{"smiles": "CCOc1ccc(OCC)c(NC(=O)c2cc(-c3cccs3)nc3ccccc23)c1", "values": [{"measurement": "AC50", "setting": "[1]", "result": "0.316 µM [falling, partial curve]"}]}
{"smiles": "O=C1CCSc2ccc(S(=O)(=O)Nc3cccc(C(F)(F)F)c3)cc2N1", "values": [{"measurement": "AC50", "setting": "[1]", "result": "12.6 µM [falling, partial curve]"}]}
{"smiles": "O=c1c(N2CCN(c3cccc(Cl)c3)CC2)csc2ccc(Cl)cc12", "values": [{"measurement": "AC50", "setting": "[1]", "result": "12.6 µM [falling, partial curve, poor fit]"}]}
{"smiles": "CSc1ccc(C2C(C#N)=C(N)Oc3c2ccc(=O)c2c(C)oc(C)c32)cc1", "note": "(stereo not given)", "values": [{"measurement": "AC50", "setting": "[1]", "result": "7.94 µM [falling, partial curve]"}]}
{"smiles": "CN(C)/C=C1/Nc2ccccc2C1=O", "values": [{"measurement": "AC50", "setting": "[1]", "result": "0.01 µM [falling, full curve, poor fit]"}]}
{"smiles": "CCc1ccc2occ(CC(=O)Nc3ccc(C)c(C)c3)c2c1", "values": [{"measurement": "AC50", "setting": "[1]", "result": "25.1 µM [falling, partial curve]"}]}
{"smiles": "CCOC(=O)N1CCN(Cc2nc(N)nc(Nc3ccc(Oc4ccccc4)cc3)n2)CC1", "values": [{"measurement": "AC50", "setting": "[1]", "result": "10 µM [falling, partial curve]"}]}
{"smiles": "Cc1sc2ncn(CC(=O)N3CCN(c4ccccc4)CC3)c(=O)c2c1S(=O)(=O)N1CCC(C)CC1", "values": [{"measurement": "AC50", "setting": "[1]", "result": "12.6 µM [falling, partial curve]"}]}
